Data as given in PubChem BioAssay AID652243 (Drosophila RNAi Screening Center, 2013)
In all, the deposit lists about 24,000 reagents; shown is a random part of those that have a named target and a result. Over the whole deposit, 246 (1%) are marked active. 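Plates not normalised; calls are printed but the firefly/Renilla ratio behind them is not deposited; fold cut for lowering reported inconsistently.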 Raw values are not corrected between plates. Names joined by + are all predicted targets of the reagent. No sequences are given here. Not given: the amount of reagent.

Assay: 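Fly genes required for human androgen receptor driven transcription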 (primary screen)
Cells: Drosophila S2R+ cells
Reagent: long dsRNA against Drosophila genes
Timing: 72 h (48 h, then 24 h hormone)
Challenge: synthetic androgen R1881 at 10 nM for 24 h
Detection: 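Per-well raw luminescence of the androgen-driven firefly reporter and of the Renilla control, two replicates each, without normalisation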
Direction: firefly reporter light: higher = more light from androgen-responsive reporter; Renilla control light: higher = more constitutive control signal (cell number, transfection)
Hit rule: 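Across duplicate plates, a knock-down whose log firefly/Renilla ratio shifted a set fold down or up from the GFP/LacZ control mean was a hit; the downward cut appears as both 1.5 and 3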
Calls: active = hit: reporter lowered or raised; inactive = no hit

Gene,dsRNA,"firefly reporter light, replicate 1","firefly reporter light, replicate 2","Renilla control light, replicate 1","Renilla control light, replicate 2",Call
CG12231,DRSC19445,30145,25246,1.31e5,1.51e5,inactive
Met,DRSC20284,5.09e5,4.44e5,2.91e6,2.55e6,inactive
Met,DRSC27106,3.81e5,2.05e5,4.01e5,1.02e5,inactive
robl,DRSC07674,1.20e5,1.60e5,1.90e6,1.90e6,inactive
Shc,DRSC11284,2.81e5,1.56e5,2.15e6,1.33e6,inactive
Dys + snoRNA:Me18S-A1374,DRSC16232,35078,49636,8.56e5,1.35e6,inactive
Boot,DRSC06412,3.44e5,3.79e5,1.27e6,1.34e6,inactive
CG43072,DRSC11688,2.40e5,3.68e5,2.26e6,2.82e6,inactive
koko + Vti1b,DRSC16283,1.34e5,72953,1.04e6,7.05e5,inactive
koko + Vti1b,DRSC16284,66094,1.09e5,1.05e6,1.36e6,inactive
CG14657,DRSC12219,1.20e5,1.17e5,3.31e6,3.21e6,inactive
CG14657,DRSC12243,30424,23513,3.43e5,4.65e5,inactive
DIP-beta,DRSC20489,2.95e5,1.93e5,9.16e5,7.37e5,inactive
DIP-beta,DRSC20490,1.96e5,1.31e5,3.89e5,2.87e5,inactive
DIP-beta,DRSC20505,3.31e5,3.04e5,3.80e5,3.03e5,inactive
DIP-beta,DRSC38792,4.41e5,6.03e5,1.65e6,1.64e6,inactive
Mst57Db,DRSC21551,7.92e5,7.67e5,2.12e6,1.67e6,inactive
osk,DRSC17023,31513,24143,4.31e5,3.40e5,inactive
CG12851,DRSC04131,2.89e5,2.17e5,1.39e6,1.46e6,inactive
CG8172,DRSC07089,3.17e5,2.69e5,2.18e6,2.22e6,inactive
CG8172,DRSC22113,6.17e5,5.59e5,1.91e6,1.55e6,inactive
CG8172,DRSC25604,7.81e5,8.85e5,6.43e5,1.05e6,inactive
ry,DRSC17048,81575,50836,3.27e5,2.80e5,inactive
ry,DRSC27399,3.55e5,2.61e5,5.26e5,5.42e5,inactive
CG13005,DRSC19524,3.87e5,4.27e5,3.50e6,3.08e6,inactive
Ldh,DRSC11198,1.40e5,1.13e5,1.94e6,1.54e6,inactive
Eb1,DRSC05016,4.68e5,3.61e5,1.96e6,1.56e6,inactive
CG11034,DRSC02121,1.81e5,1.67e5,1.92e6,1.98e6,inactive
CG11034,DRSC02122,83463,92216,8.41e5,7.12e5,inactive
CG14543,DRSC14887,1.65e5,2.88e5,2.28e6,2.63e6,inactive
CG14543,DRSC26647,4.22e5,3.57e5,5.24e5,6.22e5,inactive
l(2)gl,DRSC00825,4.10e5,5.07e5,2.37e6,4.46e6,inactive
l(2)gl,DRSC39145,4.77e5,3.78e5,2.09e6,1.14e6,inactive
lncRNA:CR34044,DRSC37789,1.14e6,8.42e5,2.11e6,2.17e6,inactive
Ran,DRSC20364,1.42e5,2.32e5,2.15e6,2.27e6,inactive
Ran,DRSC28160,2.02e5,1.09e5,8.36e5,7.12e5,inactive
CG13998,DRSC02330,1.76e5,3.34e5,9.93e5,1.49e6,inactive
Capa,DRSC15058,1.16e5,1.08e5,9.57e5,7.50e5,inactive
lambdaTry,DRSC06137,2.98e5,1.80e5,1.85e6,1.34e6,inactive
trc,DRSC11406,2.63e5,2.32e5,2.32e6,2.64e6,inactive
trc,DRSC29426,3.50e5,3.77e5,7.42e5,7.42e5,inactive
trc,DRSC37008,,,,,inactive
Cyp312a1,DRSC11128,2.21e5,2.31e5,1.91e6,2.19e6,inactive
Cyp312a1,DRSC24814,5.35e5,3.53e5,5.44e5,4.93e5,inactive
CG7294,DRSC03041,1.70e5,1.88e5,1.31e6,1.30e6,inactive
CG7294,DRSC25336,1.07e6,1.23e6,1.20e6,1.11e6,inactive
Oxp,DRSC06712,1.31e5,97009,1.68e6,1.68e6,inactive
CG31473,DRSC15443,1.39e5,1.03e5,2.90e6,1.89e6,inactive
CG31473,DRSC29111,5.42e5,7.92e5,1.24e6,1.43e6,inactive
COX6AL2,DRSC10082,2.01e5,2.28e5,2.46e6,2.48e6,inactive
CG43394,DRSC01013,69362,72836,2.83e5,2.69e5,inactive
CG43394,DRSC21835,1.08e6,1.11e6,1.58e6,1.89e6,inactive
CG43394,DRSC28255,4.95e5,7.46e5,1.20e6,2.07e6,inactive
CG14717,DRSC14940,1.61e5,2.42e5,2.63e6,2.91e6,inactive
mura,DRSC23145,4.39e5,4.76e5,9.33e5,1.22e6,inactive
mura,DRSC26645,3.72e5,3.35e5,4.67e5,4.29e5,inactive
CG7386,DRSC10832,2.41e5,2.15e5,2.76e6,2.71e6,inactive
CG7386,DRSC29368,4.95e5,5.06e5,8.65e5,8.65e5,inactive

Laid out differently: entries from further up
Dys + snoRNA:Me18S-A1374 [DRSC16232] — firefly reporter light, replicate 1 = 35078; firefly reporter light, replicate 2 = 49636; Renilla control light, replicate 1 = 8.56e5; Renilla control light, replicate 2 = 1.35e6; Call = inactive
Boot [DRSC06412] — firefly reporter light, replicate 1 = 3.44e5; firefly reporter light, replicate 2 = 3.79e5; Renilla control light, replicate 1 = 1.27e6; Renilla control light, replicate 2 = 1.34e6; Call = inactive
CG43072 [DRSC11688] — firefly reporter light, replicate 1 = 2.40e5; firefly reporter light, replicate 2 = 3.68e5; Renilla control light, replicate 1 = 2.26e6; Renilla control light, replicate 2 = 2.82e6; Call = inactive
koko + Vti1b [DRSC16283] — firefly reporter light, replicate 1 = 1.34e5; firefly reporter light, replicate 2 = 72953; Renilla control light, replicate 1 = 1.04e6; Renilla control light, replicate 2 = 7.05e5; Call = inactive
koko + Vti1b [DRSC16284] — firefly reporter light, replicate 1 = 66094; firefly reporter light, replicate 2 = 1.09e5; Renilla control light, replicate 1 = 1.05e6; Renilla control light, replicate 2 = 1.36e6; Call = inactive
CG14657 [DRSC12219] — firefly reporter light, replicate 1 = 1.20e5; firefly reporter light, replicate 2 = 1.17e5; Renilla control light, replicate 1 = 3.31e6; Renilla control light, replicate 2 = 3.21e6; Call = inactive
CG14657 [DRSC12243] — firefly reporter light, replicate 1 = 30424; firefly reporter light, replicate 2 = 23513; Renilla control light, replicate 1 = 3.43e5; Renilla control light, replicate 2 = 4.65e5; Call = inactive
DIP-beta [DRSC20489] — firefly reporter light, replicate 1 = 2.95e5; firefly reporter light, replicate 2 = 1.93e5; Renilla control light, replicate 1 = 9.16e5; Renilla control light, replicate 2 = 7.37e5; Call = inactive
DIP-beta [DRSC20490] — firefly reporter light, replicate 1 = 1.96e5; firefly reporter light, replicate 2 = 1.31e5; Renilla control light, replicate 1 = 3.89e5; Renilla control light, replicate 2 = 2.87e5; Call = inactive
